Measured values published in paper PMC4725915, “Ruthenium(II) Complexes with 2-Phenylimidazo[4,5-f][1,10]phenanthroline Derivatives that Strongly Combat Cisplatin-Resistant Tumor Cells” (Scientific Reports, 2016).

Legend:
A549R = experiment: MTT cytotoxicity assay, cisplatin-resistant A549R; type: cell-based, human; details: IC50(A549R)/IC50(A549)
Experimental: Compounds 1–4 were evaluated against three tumor cell lines derived from different tissues, including the cervix (HeLa), lung (A549) and cisplatin-resistant lung (A549R) tissues. For comparison, the cytotoxicity of cisplatin was also evaluated. As a control, the toxicities of the complexes were also tested against the normal human cell line (LO2).
The human cervix carcinoma cell line (HeLa), the lung carcinoma cell lines (A549 and A549R), and the human hepatocyte cell line (LO2) were obtained from the Experimental Animal Center at Sun Yat-Sen University (Guangzhou, China). The cells were maintained in Dulbecco’s modified Eagle’s medium (DMEM, Gibco BRL) or Roswell Park Memorial Institute 1640 (RPMI 1640, Gibco BRL) medium supplemented with 10% fetal bovine serum (FBS, Gibco BRL), 100 μg/mL streptomycin, and 100 U/mL penicillin (Gibco BRL) in a humidified incubator under 5% CO2 and 20% O2 at 37 °C. To maintain the resistant phenotype, A549R cells were incubated with 5 μM cisplatin and cultured in drug-free medium for at least a week before use.
The cytotoxicity of the ruthenium complexes and cisplatin were determined by an MTT assay. Briefly, cells were seeded into 96-well microtiter plates at 1 × 10^4 cells per well and grown overnight at 37 °C in a 5% CO2 incubator; then, different concentrations of the complexes in cell culture medium were added to the cultures. The plates were then incubated in an incubator for 48 h under the same conditions. The stock MTT dye solution (15 μL, 5 mg/mL) was added to each well. After 4 h of incubation, the cultures were removed and 150 μL of DMSO was added to each well. The optical density of each well was measured on a microplate spectrophotometer at a wavelength of 595 nm.

A549R MCTSs = experiment: Cytotoxicity test on 3D MCTSs (Cell TiterGlo ATP); type: cell-based, human
Experimental: MCTSs were cultured using the liquid overlay method. A549R cells in the exponential growth phase were dissociated by a trypsin/EDTA solution to gain single-cell suspensions. A number of 3000 diluted A549R cells were transferred to 1.5% agarose-coated transparent 96-well plates with 200 μL of DMEM containing 10% serum. The single cells formed MCTS aggregates approximately 400 μm in diameter after three days with 5% CO2 and 20% O2 at 37 °C. After formation of the MCTSs, each MCTS in a 96-well plate was imaged with a phase contrast microscope (Zeiss Axio Observer D1, Germany) using 10× objective to monitor their color, integrity, diameter, and volume.
A549R MCTSs (diameters ≈400 μm) were treated by carefully replacing 50% of the medium with drug-supplemented standard medium using an eight-channel pipet. In parallel, 50% of the medium containing solvent was replaced with solvent-free medium for the untreated MCTSs. Three A549R MCTSs were treated per condition and drug concentration; the DMSO volume was less than 1% (v/v). […] The cytotoxicities of the Ru(II) complexes toward the MCTSs were measured using ATP concentrations with a Cell TiterGlo kit (Promega). After 30 min of incubation, the MCTSs were carefully transferred into black-sided, flat-bottomed 96-well plates (Corning) and mixed with a pipet for luminescence measurements on an Infinite M200 PRO instrument (TECAN).

| Compound | Resistant Index (A549R) | fold lower IC50 on A549R MCTSs than complex 2 (A549R MCTSs; versus complex 2) [fold] | fold lower IC50 on A549R MCTSs than complex 3 (A549R MCTSs; versus complex 3) [fold] |
| --- | --- | --- | --- |
| FC(F)(F)c1ccc(-c2nc3c4cccnc4c4ncccc4c3[nH]2)cc1.[Ru+2].c1cnc2c(c1)ccc1cccnc12.c1cnc2c(c1)ccc1cccnc12 [Complex 2] | 1.11 | – | – |
| N.N.[Cl][Pt][Cl] [cisplatin] | 6.69 | – | – |
| Ru(phen)2(tbtfpip)(PF6)2 [Complex 3] | 1.13 | – | – |
| Ru(phen)(bzq)(tbtfpip)(PF6) [Complex 4] | 0.8 | 53 | 33 |
